From the supplement of paper PMC3334620 come the findings set out here.

The full ranking holds about 33,000 sequences; the median of “E-score (-0.5 to 0.5)” is about -0.016, and the highest 2% start at about 0.3. This is one part of the list.

The assay deals with T1, Yer184c (UniProt P39961).
T1 sequence: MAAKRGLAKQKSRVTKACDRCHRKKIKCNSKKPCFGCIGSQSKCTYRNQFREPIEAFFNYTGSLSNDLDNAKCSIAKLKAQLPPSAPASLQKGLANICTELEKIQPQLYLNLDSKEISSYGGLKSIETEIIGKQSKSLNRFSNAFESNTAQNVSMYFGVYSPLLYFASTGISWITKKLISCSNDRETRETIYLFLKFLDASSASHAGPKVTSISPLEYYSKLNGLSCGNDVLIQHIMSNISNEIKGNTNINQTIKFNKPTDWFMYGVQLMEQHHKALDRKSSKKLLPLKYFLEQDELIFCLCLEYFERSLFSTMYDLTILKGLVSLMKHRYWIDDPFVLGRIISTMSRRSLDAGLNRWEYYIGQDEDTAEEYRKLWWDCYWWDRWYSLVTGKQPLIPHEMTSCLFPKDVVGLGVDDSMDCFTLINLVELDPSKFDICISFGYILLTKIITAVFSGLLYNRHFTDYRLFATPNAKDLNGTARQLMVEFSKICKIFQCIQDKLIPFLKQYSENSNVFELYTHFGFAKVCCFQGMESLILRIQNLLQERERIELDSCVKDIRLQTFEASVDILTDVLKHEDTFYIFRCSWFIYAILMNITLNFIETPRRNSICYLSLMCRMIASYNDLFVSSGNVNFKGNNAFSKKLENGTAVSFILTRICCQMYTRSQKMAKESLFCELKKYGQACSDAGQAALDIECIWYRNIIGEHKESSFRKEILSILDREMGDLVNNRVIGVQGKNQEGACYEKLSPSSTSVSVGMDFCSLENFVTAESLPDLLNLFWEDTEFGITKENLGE
The experiment in a line: PBM E-score (8-mer binding enrichment) (E-score (-0.5 to 0.5)); higher = stronger / more preferred TF binding. The following applies: protein concentration: 100 nM; construct: GST-full length. In outline: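 Detection of bound protein used fluorescent anti-GST, with scans normalised by masliner. The proteins were GST-tagged yeast transcription factors applied at about 100-200 nM to universal all-10-mer Agilent arrays made double-stranded by primer extension. Each ungapped eight-base word, pooled with its reverse complement, was scored with an E-score from the Universal PBM Analysis Suite.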
AGAATCGG: the “PBM E-score” value was determined as 0.204.
For GAGGATGC the value was -0.0836.
Next, GATGCCCA: 0.124; CAGAGCAC: -0.132; GGGGGCAC: -0.328.
With GATCTGGC, the “PBM E-score” value is -0.0225.
Next, ATCGGTGG: -0.109.
Next, ATCCGATG: 0.327; ATTCACAA: 0.109; ACTAAAGG: -0.019.
Take CCCCTTCC: the “PBM E-score” value is -0.233.
For CGCACGCG, the “PBM E-score” value was -0.181.
For GAATGGGC the value was -0.155; for CCTAATCC, -0.089; for AATAAATC, 0.0601.
For GATAAGGC the value was -0.0618; for AAAAGGCG, -0.119.
Next, GAGTTGAA: -0.066; GTCCCCTA: -0.298; CATACGAA: 0.0676.
As for CTTCCCGC, the “PBM E-score” value was 0.0247.
Turning to AGTGAACT, the “PBM E-score” value stood at 0.0211.
For AGGGCCCA the value was -0.175; for ACCCATCA, -0.11.
Next, AACTGGCT: -0.223; CGAAGGCC: 0.0172.
For AGAGCGGG the value was -0.162; for GGCTTGGA, -0.409.
In the case of CCGATGCG, the “PBM E-score” value is 0.0553.
CGGTACGA: the “PBM E-score” value came out at 0.0182.
For ACCCATTA the value was -0.126.
With GCGTATCC, the “PBM E-score” value is -0.0812.
Next, AAGGGGCT: -0.132.
Next, CAAGTGTG: 0.00548; GTGCTTGA: 0.00946; CCCACGCG: -0.252.
Turning to CGAACACG, the “PBM E-score” value came to 0.172.
Next, GGCGGACA: 0.0704; AATTGCCG: 0.27; ACTCCCCG: 0.186.
For GCCAGTTA, the “PBM E-score” value was -0.0285.
For AGTCGTAT the value was -0.13.
With CGACCCTA, the “PBM E-score” value was -0.121.
Next, CTTAAATA: 0.0274; GGTGACCA: -0.187; AGGTAGCA: -0.299.
Next, CTAATTAC: 0.112; GGTAATAA: 0.216.
Take AGCAATAT: the “PBM E-score” value came to 0.0231.
Next, AGAGTCAA: -0.151; CGAAGCCG: 0.192; ACATGCTA: -0.0879.
Next, CATGGGAA: 0.0355.
For CTTGTGGA the value was -0.134; for ATGTACGG, -0.0106.
On to CGCGTTTA, for which the “PBM E-score” value was -0.00291.
For AAGGAGAC, the “PBM E-score” value was -0.147.
For CGAAGTCG, the “PBM E-score” value was determined as 0.194.
Regarding ACCATAGG, the “PBM E-score” value was -0.267.
On to GAGTTAGA, for which the “PBM E-score” value was -0.0539.
For AATAAAAA the value was 0.196; for GATGGTAA, 0.0112; for CGACGTCG, -0.184.
Next, GACAGAGA: 0.0101; AGTTGGCG: -0.0302; GATTATCA: 0.148.
Consider ATACTGTA, for which the “PBM E-score” value stood at 0.102.
For CATTTGCC the value was -0.153; for ACAACCGG, 0.282.
Take GACGTCTA: the “PBM E-score” value is -0.233.
For TTCTGAAA the value was 0.0488.
With CGAGTACC, the “PBM E-score” value is 0.0177.
As to AGGCGCAC, the “PBM E-score” value was -0.0347.
Next, CACTTCAA: 0.12; AATGATAC: 0.211; AGAAGGGA: -0.426.
For GGAGGTTA the value was -0.1; for GGAAGGGA, -0.0945.
Consider ACGGCCGC, for which the “PBM E-score” value worked out at 0.244.
For AAACAACT the value was 0.13; for AAATTAGC, 0.137.
For CGGTCAGC the value was -0.0378; for CACCTCCC, -0.324.
Next, AAAGAGGA: -0.0862; GCCGAGCA: 0.186.
GTATATCA: the “PBM E-score” value came out at 0.244.
Next, GGAGACCA: -0.0708.
For CTGCGTGC the value was -0.0611.
Regarding CCCTGCTC, the “PBM E-score” value is -0.177.
Next, CTCTAGGC: -0.154; CCGGACGG: 0.295; CACTGATC: -0.102.
Consider CGCCCTTA, for which the “PBM E-score” value is -0.179.
Next, CCTGAAAC: 0.15.
